The list shows a part of the results. Shown are side measurements of this screen, not its main read-out; they come without a call. Most of these compounds were active or inconclusive in the main read-out, so they are no random draw. Potencies come from curve fits of mixed quality, noted in brackets.

A short description of the assay: IkB Signaling. Particulars: ABC-DLBCL IkBa-CBG/CBR dual luciferase ratio (green luciferase fused to IkBa over red control in OCI-Ly3 lymphoma cells), 4 h; measured here: control luc red channel unless noted. Put shortly: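 Curves were fitted separately to fusion (green), unfused (red) and ratio luminescence, then classed by r2, magnitude and activity. Cells: OCI-Ly3, 4 h compound plus doxycycline at 37C; 10 uM MG-132 defined full response.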
The term AC50 denotes the midpoint of the concentration-response curve, whichever way the signal moves. As to `Cc1ccc2c(CN3CCN(C(=O)c4ccc(F)cc4)CC3)cc(=O)oc2c1`, the AC50 was 25.1 µM [falling, single point].

As for `Cc1ccc(OCC(=O)N(c2ccc(C)cc2)S(=O)(=O)c2ccc(Cl)cc2)cc1`, the AC50 is 31.6 µM [falling, partial curve].

Take `CCOc1ccccc1NC(=O)CSc1nc(=O)[nH]c2c1CCCC2`: the AC50 was 12.6 µM [falling, partial curve].

In the case of `CC(C)(C)c1ccc(C(=O)NCCc2csc3nc(-c4ccccc4F)nn23)cc1`, the AC50 is 20 µM [falling, partial curve].

For the compound `COc1ccc(C2(Nc3cccc(C(=O)O)c3C)C(=O)c3ccccc3C2=O)cc1`, the AC50 was 15.8 µM [falling, partial curve].

Turning to `Cn1nc(-c2ccc(Cl)cc2)c2cc(C(=O)N3CCCC3)sc21`, the AC50 was 2.51 µM [falling, full curve, poor fit].

Consider `COc1ccc(-c2csc3nc(-c4ccccc4C)oc(=O)c23)cc1OC`, for which the AC50 was 3.16 µM [falling, full curve, poor fit].

In the case of `Cc1ccccc1CS(=O)(=O)c1nnc([C@H](CC(C)C)NC(=O)OC(C)(C)C)o1`, the AC50 is 12.6 µM [falling, partial curve].

Take `COc1ccc(NC(=O)CSc2oc(-c3cccs3)nc2S(=O)(=O)c2ccc(C)cc2)c(OC)c1`: the AC50 was 0.316 µM [falling, full curve].

As for `CN(CC(=O)Nc1nc2ccccc2s1)S(=O)(=O)c1ccccc1`, the AC50 is 15.8 µM [falling, partial curve].

For the compound `CCOC(=O)c1c(C)oc2ncnc(N3CCN(c4ccccc4F)CC3)c12`, the AC50 is 12.6 µM [falling, partial curve, poor fit].

`COc1ccccc1NC(=O)c1ccc(COc2ccccc2OC)o1`: the AC50 is 15.8 µM [falling, partial curve].

For the compound `Cn1c(=O)c2c(-c3ccc(Cl)cc3)n(Cc3ccccc3)cc2n(C)c1=O`, the AC50 was 15.8 µM [falling, single point].

In the case of `COc1ccc(CNC(=O)CSc2nc3ccccc3nc2Cc2ccccc2)cc1`, the AC50 is 5.01 µM [falling, partial curve].

For the compound `COc1cccc(/C=C/c2nc(C#N)c(NCCN(C)C)o2)c1`, the concentration at half-maximal activity (AC50) was 31.6 µM [falling, single point].

Consider `CN(Cc1ccccc1)C(=O)c1ccc2c(c1)N(Cc1ccccc1F)C(=O)c1ccccc1S2(=O)=O`, for which the concentration at half-maximal activity (AC50) was 12.6 µM [falling, partial curve].

For `CCCOc1cccc(NC(=O)c2c(-c3ccccc3Cl)noc2C)c1`, the AC50 is 15.8 µM [falling, partial curve].

As to `CN(C(=O)CSc1nc2ccc(NC(=O)COc3ccc(Cl)cc3)cc2s1)c1ccccc1`, the AC50 is 3.16 µM [falling, full curve].

On to `COc1cc(/C=C/c2nc(C#N)c(N3CCCCCC3)o2)cc(OC)c1OC`, for which the concentration at half-maximal activity (AC50) was 12.6 µM [falling, partial curve].

As to `Cc1cccc(C)c1NC(=O)Cn1c(=O)n(Cc2ccccc2)c(=O)c2c(C)c(C(=O)N(C)C)sc21`, the AC50 was 3.98 µM [rising, full curve].

In the case of `Cc1ccc(Cl)cc1-n1c(=O)cc(N2CCN(c3ccc(F)cc3)CC2)[nH]c1=O`, the AC50 is 39.8 µM [falling, single point].

With `CCn1cnc2sc(C(=O)N(Cc3ccc(N(C)C)cc3)Cc3ccco3)c(C)c2c1=O`, the half-maximal activity concentration (AC50) is 12.6 µM [falling, partial curve, poor fit].

Take `Cc1nn(-c2ccccc2)c(C)c1C(=O)OCC(=O)c1c(N)n(CC(C)C)c(=O)n(C)c1=O`: the concentration at half-maximal activity (AC50) is 12.6 µM [falling, partial curve].

`CCCCNC(=O)c1nn(-c2ccc(CC)cc2)nc1CO`: the half-maximal activity concentration (AC50) is 25.1 µM [falling, single point].

Take `Cc1cccc(NC(=O)C2CCN(S(=O)(=O)c3ccc(F)cc3)CC2)c1C`: the half-maximal activity concentration (AC50) is 12.6 µM [falling, partial curve].

Take `O=C(O)CCN1C(=O)C(=C2CCCCCC2)SC1=S`: the half-maximal activity concentration (AC50) was 2 µM [falling, partial curve].

As for `CCCn1c(=O)sc2cc(NC(=O)COc3ccc(Cl)cc3)ccc21`, the half-maximal activity concentration (AC50) is 15.8 µM [falling, partial curve].

With `COc1cccc(CN(C(=O)c2oc3cc(C)ccc3c2C)C2CCS(=O)(=O)C2)c1` (stereo not drawn), the AC50 was 31.6 µM [falling, single point].

As for `CCN(CC)CC(C)CNC(=O)c1cc(-c2ccc(Br)s2)nc2ccccc12` (stereo not drawn), the concentration at half-maximal activity (AC50) was 25.1 µM [falling, single point].

Consider `CCOC(=O)c1ccc(NS(=O)(=O)c2ccc3c(c2)n(C)c(=O)n3C)cc1`, for which the concentration at half-maximal activity (AC50) was 15.8 µM [falling, partial curve].

In the case of `COc1ccc(C)cc1NC(=O)c1ccc2c(SCC(=O)O)c3c(nc2c1)CCCC3`, the AC50 was 15.8 µM [falling, partial curve].

For `Cn1c(=O)n(-c2ccc3c(c2)OCO3)c2nc(-c3ccccc3)nc(C(N)=O)c21`, the AC50 is 15.8 µM [rising, partial curve].

In the case of `c1csc(CCNc2ncnc3sc4c(c23)CCC4)c1`, the AC50 is 15.8 µM [falling, partial curve].

As for `COc1ccc(NC(=O)c2sc3nc[nH]c(=O)c3c2C)cc1Cl`, the half-maximal activity concentration (AC50) was 0.00501 µM [rising, full curve, poor fit].

For the compound `CCCC1=Nc2cc(C(=O)NC3CCCC3)ccc2Sc2ccc(C)cc21`, the AC50 is 794 nM [rising, full curve] [measured here: IkB-luc green channel].

With `Cc1cc(C)cc(NC(=O)CSc2cc(C)[nH]c(=O)n2)c1`, the AC50 was 39.8 µM [rising, single point].

Take `COc1cc(CNC(=O)CCCC/C=C\C(C)C)ccc1O`: the AC50 is 15.8 µM [falling, partial curve].

Regarding `CN(c1ccc(O)cc1)c1nc(-c2ccccc2)cs1`, the AC50 is 20 µM [falling, partial curve, poor fit].

`Cc1c(C)c2c(cc(C)c3c(-c4ccccc4)coc32)oc1=O`: the concentration at half-maximal activity (AC50) was 6.31 µM [rising, single point].

With `COc1ccccc1-n1ncc2c(=O)[nH]c(SCC(=O)Nc3ccc(Cl)cc3)nc21`, the AC50 was 31.6 µM [falling, single point].

Consider `CC12CC(NC(=O)N1c1cccc(C(=O)NCc3ccc4c(c3)OCO4)c1)c1cc(Cl)ccc1O2` (stereo not drawn), for which the concentration at half-maximal activity (AC50) is 7.94 µM [falling, partial curve].

Regarding `Cc1csc(NC(=O)CCCSc2nc3ccccc3s2)n1`, the AC50 was 15.8 µM [falling, partial curve].

Turning to `COc1cccc(-n2cc(C(=O)NCCc3ccc(C)cc3)c3ccccc3c2=O)c1`, the AC50 is 31.6 µM [falling, partial curve].

As to `COc1ccc2oc(=O)c(-c3csc(-c4ccc(Br)cc4)n3)cc2c1`, the AC50 is 15.8 µM [rising, partial curve].

`COc1ccc(-c2nc3c4ccccc4n(CC(=O)N4CCN(c5ccccc5OC)CC4)c(=O)n3n2)cc1`: the half-maximal activity concentration (AC50) is 0.631 µM [falling, full curve].

Turning to `O=S(=O)(NCc1ccc(F)cc1)c1ccc(-c2cnc(C3CC3)o2)cc1`, the AC50 was 39.8 µM [falling, single point].

Turning to `O=C(Nc1cccc2nsnc12)c1cccs1`, the AC50 is 15.8 µM [falling, partial curve].

With `Cc1ccc(C(=O)c2cn(CC(=O)NC3CCCCC3)c3nc(C)ccc3c2=O)cc1`, the concentration at half-maximal activity (AC50) was 39.8 µM [falling, single point].

Take `Cc1c(C(=O)N2CCCC2)oc2c1-c1nn(CC(=O)NCCCOC(C)C)cc1CC2`: the half-maximal activity concentration (AC50) was 1.58 µM [falling, partial curve].

For `O=C(O)CC(C(=O)O)c1cn(Cc2ccccc2)c2ccccc12` (stereo not drawn), the AC50 is 3.98 µM [rising, single point].

Regarding `CCSc1nnc2c(n1)OC(c1ccc(C)cc1)N(C(C)=O)c1ccccc1-2` (stereo not drawn), the AC50 is 31.6 µM [falling, partial curve].

For `COc1ccc(CNC(=O)CCCN2C(=O)CSc3c2c(C)nn3-c2ccccc2)c(OC)c1`, the AC50 was 20 µM [falling, partial curve].

Turning to `O=C(COc1ccc2ccccc2c1)N1CCN(c2ccccc2O)CC1`, the AC50 was 25.1 µM [falling, partial curve].

In the case of `Cc1ccc(-c2[nH]c3ccccc3c2SCCNC(=O)c2ccc(S(=O)(=O)N(C)C)cc2)cc1`, the AC50 is 5.01 µM [falling, full curve].

Regarding `Cc1ccc(C)c(/C(O)=C2/C(=O)C(=O)N(CCN3CCOCC3)C2c2ccco2)c1` (stereo not drawn), the concentration at half-maximal activity (AC50) was 39.8 µM [rising, single point] [measured here: IkB-luc green channel].

Consider `COc1ccc(Cl)cc1NC(=O)CCS(=O)(=O)c1cccc2nonc12`, for which the half-maximal activity concentration (AC50) was 0.316 µM [falling, full curve].

On to `Cc1ccc(NC(=O)C(=O)NCC(c2cccnc2)N2CCOCC2)cc1Cl` (stereo not drawn), for which the AC50 was 10 µM [falling, partial curve].

Consider `Cn1nc(CC(=O)N2CCN(c3ccccc3)CC2)c2ccccc2c1=O`, for which the AC50 was 15.8 µM [falling, partial curve].

Turning to `O=C(CSc1ncnc2c1cnn2-c1ccccc1Cl)N1CCN(C(=O)c2ccco2)CC1`, the AC50 is 31.6 µM [falling, partial curve].

In the case of `Cc1c(CC(=O)N2CCCCC2)c(=O)oc2c(C)c3occ(C(C)(C)C)c3cc12`, the concentration at half-maximal activity (AC50) was 39.8 µM [falling, single point].

In the case of `COc1ccc(Cl)cc1NC(=O)C1CCN(c2nnc(C)c3c(C)n(-c4ccccc4)nc23)CC1`, the concentration at half-maximal activity (AC50) was 25.1 µM [falling, partial curve].

As for `Cc1ccc(CN2CCSc3ccc(C(=O)NCCc4ccccc4)cc32)cc1`, the AC50 was 10 µM [falling, partial curve].

For `O=CN1Cc2[nH]c3ccccc3c2N(c2ccc(Cl)cc2)C1=O`, the concentration at half-maximal activity (AC50) was 1 µM [falling, partial curve].

The values are drawn from PubChem BioAssay AID445 (National Center for Advancing Translational Sciences (NCATS), 2006).
